For the data set the following is noted: basic group.

On to `CN1CC[C@]23c4c5ccc(O)c4O[C@H]2C(=O)CC[C@H]3[C@H]1C5`, for which the pKa (commonly the pH at which an ionisable group is half protonated) is 7.97.

The record behind these values is the pKa sets of Baltruschat and Czodrowski (2020).
